Experimental data: PubChem BioAssay AID445 (National Center for Advancing Translational Sciences (NCATS), 2006)
This is one part of the list. Further columns of the screen follow, without active or inactive calls. Most of these compounds were active or inconclusive in the main read-out, so they are no random draw. Potencies come from curve fits of mixed quality, noted in brackets.

Test: IkB Signaling
Conditions: ABC-DLBCL IkBa-CBG/CBR dual luciferase ratio (green luciferase fused to IkBa over red control in OCI-Ly3 lymphoma cells), 4 h; measured here: control luc red channel unless noted
Method in brief: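 Luminescence ratio of IκBα-fused green versus native red beetle luciferase in OCI-Ly3 cells, 4 h post-doxycycline with compound; red signal alone, scaled from basal (0%) to zero light (-100%), flagged nonspecific or cytotoxic effects.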
With `Cc1c(C(=O)N(Cc2ccccc2F)C2CCS(=O)(=O)C2)oc2ccccc12` (stereo not given) the AC50 was 10 µM [falling, partial curve]. In the case of `Cc1nn(C)c2c1c(C(F)(F)F)cc(=O)n2C(C)C(=O)Nc1ccccc1F` (stereo not given), the AC50 was 39.8 µM [falling, single point]. In the case of `CCOc1ccc(C(=O)c2cn(CC(=O)Nc3ccc(Cl)cc3)c3cc4c(cc3c2=O)OCO4)cc1`, the AC50 was 6.31 µM [falling, partial curve]. In the case of `COc1ccc(S(=O)(=O)NCC(c2cccs2)S(=O)(=O)c2ccccc2)cc1OC` (stereo not given), the AC50 was 3.98 µM [rising, partial curve]. For `COc1ccc(-c2nnc(SCC(=O)Nc3cccc(C(F)(F)F)c3)s2)cc1`, the AC50 was 12.6 µM [rising, partial curve]. In the case of `CCS(=O)(=O)c1ncc(N(Cc2ccccc2)Cc2ccco2)c(C(=O)Nc2cccc(Cl)c2C)n1`, the AC50 was 3.16 µM [falling, full curve]. For `COc1ccccc1C(=O)Nc1ccc2nc(SCC(=O)N(C)c3ccccc3)sc2c1`, the AC50 was 1.58 µM [falling, full curve]. In the case of `CCCCCC(=O)Nc1ccccc1N1CCN(c2ccccc2)CC1`, the AC50 was 31.6 µM [falling, single point]. With `CCOc1ccc(CNC(=O)c2ccc3c(c2)c(C)c(C)n3Cc2ccccc2)cc1OC` the AC50 was 10 µM [falling, full curve]. With `O=C(COc1ccc(Cl)cc1)NCc1nnc(SCC(=O)Nc2ccc3c(c2)OCCO3)o1` the AC50 was 12.6 µM [falling, partial curve]. For `COC(=O)c1ccc(Cl)cc1NC(=O)Nc1nnc(N2CCCC2)s1`, the AC50 was 15.8 µM [falling, partial curve]. With `COc1ccc(CCNC(=O)c2ccc3c(c2)N(Cc2ccccc2)C(=O)c2ccccc2S3=O)cc1OC` (stereo not given) the AC50 was 0.501 µM [rising, full curve]. With `Fc1ccc(C(c2nnc(-c3ccccc3)o2)N2CCN(c3cccc(Cl)c3)CC2)cc1` (stereo not given) the AC50 was 7.94 µM [falling, full curve]. With `COC(=O)c1ccc(NC(=O)c2cccc(OC)c2)cc1` the AC50 was 12.6 µM [falling, partial curve]. With `CCOC(=O)C(CC)n1nnc2sc(-c3ccccc3)cc2c1=O` (stereo not given) the AC50 was 25.1 µM [falling, single point]. For `CC(=O)c1cccc(NC(=O)CSc2nnc3ccc(-c4ccc(Br)cc4)nn23)c1`, the AC50 was 6.31 µM [rising, single point]. For `Cc1ccc(Nc2c(-c3c[nH]c4ccccc34)nc3ccccn23)cc1`, the AC50 was 0.0316 µM [falling, full curve]. For `CC(C)Oc1ccccc1-c1nc(SCC(=O)c2ccc(F)cc2)n[nH]1`, the AC50 was 25.1 µM [falling, single point]. For `Cc1ccc(CNC(=O)CSc2nc3c(sc4ccccc43)c(=O)n2CCCOC(C)C)cc1`, the AC50 was 7.94 µM [rising, partial curve]. With `COc1ccc(OC)c(CCNC(=O)c2cc3c(s2)-c2c(C)cccc2OC3)c1` the AC50 was 6.31 µM [falling, full curve, poor fit]. With `O=C(c1ccc(F)cc1)c1cn(Cc2ccccc2F)c2cc3c(cc2c1=O)OCCO3` the AC50 was 25.1 µM [falling, single point]. For `Cc1cccc(-c2nc(CN3CCCC(C(=O)N4CCN(c5cc(Cl)ccc5C)CC4)C3)c(C)o2)c1` (stereo not given), the AC50 was 12.6 µM [falling, partial curve]. In the case of `COC(=O)CSc1ncc2c(n1)-c1ccccc1N(Cc1ccc(Cl)cc1)S2(=O)=O`, the AC50 was 31.6 µM [falling, partial curve]. In the case of `COc1ccc(NC(=O)c2c(C)oc3ccc(O)c(CN4CCC(C)CC4)c23)cc1Cl`, the AC50 was 25.1 µM [falling, single point]. With `Cn1ncc2c(Nc3cc(C(F)(F)F)ccc3Cl)ncnc21` the AC50 was 5.01 µM [rising, full curve, poor fit]. In the case of `CC(NC(=O)c1ccc2c(c1)N(Cc1ccc(Cl)cc1)C(=O)CS2)c1ccccc1` (stereo not given), the AC50 was 6.31 µM [falling, partial curve]. In the case of `Cc1nn2c3cc(N4CCOCC4)ccc3nc2c2ccccc12`, the AC50 was 3.98 µM [rising, partial curve]. In the case of `CC(=O)Oc1ccc(N2C(=O)C3C(C2=O)C2(C)C=CC3(C)O2)cc1` (stereo not given), the AC50 was 5.01 µM [falling, full curve]. For `CCN(c1cccc(C)c1)S(=O)(=O)c1cc(Br)cc2c1N(C(C)=O)C(C)C2` (stereo not given), the AC50 was 20 µM [falling, partial curve]. For `CCc1ccc(-n2nnc(-c3nc(-c4cccs4)no3)c2N)cc1`, the AC50 was 2.51 µM [rising, partial curve]. For `CC(C)OC(=O)c1ccc(Cn2nnc3sc4c(c3c2=O)CCCC4)cc1`, the AC50 was 12.6 µM [falling, partial curve]. With `CCCN(c1c(C)n(C)n(-c2ccccc2)c1=O)S(=O)(=O)c1ccc(C)cc1` the AC50 was 3.98 µM [rising, partial curve]. For `COc1cc(Br)cc(/C=N/c2ncn[nH]2)c1O`, the AC50 was 7.94 µM [falling, full curve, poor fit]. In the case of `CC(C)(C)C1CCc2c(sc(NC(=O)c3cc4ccccc4c(=O)o3)c2C(N)=O)C1` (stereo not given), the AC50 was 10 µM [falling, partial curve]. With `COc1ccccc1NC(=O)CN1CCN(CC(=O)Nc2ccc(Cl)c(C(F)(F)F)c2)CC1` the AC50 was 7.94 µM [falling, partial curve]. With `Cc1ccc(-c2nc(C)c(CCNC(=O)c3cccs3)s2)cc1` the AC50 was 39.8 µM [falling, partial curve, poor fit]. With `Clc1ccccc1C1=Nn2c(nnc2-c2ccncc2)SC1` the AC50 was 15.8 µM [falling, partial curve]. With `O=C(CSc1nnc(-c2ccco2)n1Cc1ccccc1)c1ccc(F)cc1` the AC50 was 31.6 µM [falling, single point]. For `CC1CCN(c2nn3c(=O)c(C(=O)NCCCOC(C)C)cnc3s2)CC1`, the AC50 was 12.6 µM [rising, partial curve]. With `CC(=O)c1ccc(N2CCN(C(=O)c3cc4c(-c5ccccc5F)nn(C)c4s3)CC2)cc1` the AC50 was 3.16 µM [falling, full curve].
